Results are given in words; binding and its absence hold for the method and conditions named. In cells and extracts the contact can be indirect. Some results given as binding are weak or reduced against the parent protein; the word gives no strength.
Target: T1, tank-binding kinase 1 (TBK1) (mouse (endogenous in bone marrow-derived MDSCs)) (UniProt Q9WUN2)
T1 sequence: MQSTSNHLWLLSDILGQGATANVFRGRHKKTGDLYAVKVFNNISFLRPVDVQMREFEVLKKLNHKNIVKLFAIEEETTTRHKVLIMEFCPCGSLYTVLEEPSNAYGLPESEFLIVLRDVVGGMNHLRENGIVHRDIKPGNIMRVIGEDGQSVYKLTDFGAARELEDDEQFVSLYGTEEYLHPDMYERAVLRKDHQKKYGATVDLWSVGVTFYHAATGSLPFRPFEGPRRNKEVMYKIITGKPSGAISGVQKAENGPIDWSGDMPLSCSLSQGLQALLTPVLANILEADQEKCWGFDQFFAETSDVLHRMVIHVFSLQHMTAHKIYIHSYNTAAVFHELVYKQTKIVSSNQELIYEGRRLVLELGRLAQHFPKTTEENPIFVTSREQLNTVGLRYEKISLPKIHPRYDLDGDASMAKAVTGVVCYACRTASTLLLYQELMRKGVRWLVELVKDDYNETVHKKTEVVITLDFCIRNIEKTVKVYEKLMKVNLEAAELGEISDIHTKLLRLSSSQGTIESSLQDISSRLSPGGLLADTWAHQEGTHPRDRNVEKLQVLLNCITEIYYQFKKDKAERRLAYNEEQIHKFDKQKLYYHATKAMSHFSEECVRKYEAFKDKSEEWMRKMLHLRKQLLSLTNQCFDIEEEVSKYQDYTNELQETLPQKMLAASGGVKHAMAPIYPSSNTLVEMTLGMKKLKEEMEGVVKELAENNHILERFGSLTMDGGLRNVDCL
Assay: co-IP; whole cell lysates (NP40/IP lysis buffer) of Ch25h f/f and Ch25h f/f Lyz2Cre(±) MDSCs; primary antibodies or normal mouse IgG overnight at 4°C, magnetic beads, PBST washes, protein blotting

Chains of the proteins cited; added tags and fusions are not shown.
UniProt Q9QZL0: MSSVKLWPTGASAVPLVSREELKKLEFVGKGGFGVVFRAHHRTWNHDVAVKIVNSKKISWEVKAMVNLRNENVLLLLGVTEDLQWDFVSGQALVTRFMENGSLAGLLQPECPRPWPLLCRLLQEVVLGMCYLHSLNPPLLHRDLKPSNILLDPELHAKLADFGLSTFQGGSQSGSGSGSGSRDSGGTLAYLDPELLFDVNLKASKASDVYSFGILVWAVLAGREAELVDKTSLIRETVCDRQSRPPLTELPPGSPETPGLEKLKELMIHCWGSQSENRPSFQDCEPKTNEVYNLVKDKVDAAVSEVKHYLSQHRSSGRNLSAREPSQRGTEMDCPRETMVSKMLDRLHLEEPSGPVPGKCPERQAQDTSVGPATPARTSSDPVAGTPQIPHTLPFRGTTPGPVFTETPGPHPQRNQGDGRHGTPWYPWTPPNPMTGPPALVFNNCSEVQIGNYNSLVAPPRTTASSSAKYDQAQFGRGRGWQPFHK

receptor-interacting protein kinase 3 (RIPK3) (from UniProt Q9QZL0 1-486)
binding: binds
